This is one part of the list.
Experiments:
Assay in all cases: glycan array binding signal (z-score within array); higher = stronger binding
Details in all cases: glycan notation: IUPAC condensed, linker removed
[1] = target: Fuc(a1-2)Gal
Summary of the method: (§1)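 Glycan array data were curated from 3228 arrays in the Consortium for Functional Glycomics database and kept only where the protein sequence was available. Glycan names were converted to IUPAC-condensed notation, and columns mapping to the same glycan were averaged. The binding signal is a within-array Z-score, averaged across arrays of the same protein sequence at different concentrations or buffers and across linkers. Negative Z-scores can be read as non-binding.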

[2] = target: Fuc(a1-2)Gal(b1-3)GalNAc
Summary of the method: as §1

[3] = target: Fuc(a1-2)Gal(b1-3)GalNAc(a1-3)[Fuc(a1-2)]Gal(b1-4)Glc
Summary of the method: as §1

[4] = target: Fuc(a1-2)Gal(b1-3)GalNAc(a1-3)[Fuc(a1-2)]Gal(b1-4)GlcNAc
Summary of the method: as §1

[5] = target: Fuc(a1-2)Gal(b1-3)GalNAc(b1-3)Gal
Summary of the method: as §1

[6] = target: Fuc(a1-2)Gal(b1-3)GalNAc(b1-3)Gal(a1-4)Gal(b1-4)Glc
Summary of the method: as §1

[7] = target: Fuc(a1-2)Gal(b1-3)GalNAc(b1-4)[Neu5Ac(a2-3)]Gal(b1-4)Glc
Summary of the method: as §1

[8] = target: Fuc(a1-2)Gal(b1-3)GlcNAc
Summary of the method: as §1

[9] = target: Fuc(a1-2)Gal(b1-3)GlcNAc(b1-2)Man(a1-3)[Fuc(a1-2)Gal(b1-3)GlcNAc(b1-2)Man(a1-6)]Man(b1-4)GlcNAc(b1-4)GlcNAc
Summary of the method: as §1

[10] = target: Fuc(a1-2)Gal(b1-3)GlcNAc(b1-2)Man(a1-3)[Fuc(a1-2)Gal(b1-3)GlcNAc(b1-2)Man(a1-6)]Man(b1-4)GlcNAc(b1-4)[Fuc(a1-6)]GlcNAc
Summary of the method: as §1

[11] = target: Fuc(a1-2)Gal(b1-3)GlcNAc(b1-3)Gal(b1-4)Glc
Summary of the method: as §1

[12] = target: Fuc(a1-2)Gal(b1-3)GlcNAc(b1-3)GalNAc
Summary of the method: as §1

[13] = target: Fuc(a1-2)Gal(b1-3)GlcNAc(b1-3)[Fuc(a1-2)Gal(b1-3)GlcNAc(b1-6)]GalNAc
Summary of the method: as §1

[14] = target: Fuc(a1-2)Gal(b1-3)GlcNAc(b1-3)[Gal(b1-4)GlcNAc(b1-6)]Gal(b1-4)Glc
Summary of the method: as §1

[15] = target: Fuc(a1-2)Gal(b1-3)GlcNAc(b1-3)[Neu5Ac(a2-6)Gal(b1-4)GlcNAc(b1-6)]Gal(b1-4)Glc
Summary of the method: as §1

[16] = target: Fuc(a1-2)Gal(b1-3)GlcNAc6S
Summary of the method: as §1

[17] = target: Fuc(a1-2)Gal(b1-3)[Fuc(a1-4)]GlcNAc
Summary of the method: as §1

[18] = target: Fuc(a1-2)Gal(b1-3)[Fuc(a1-4)]GlcNAc(b1-2)Man(a1-3)[Fuc(a1-2)Gal(b1-3)[Fuc(a1-4)]GlcNAc(b1-2)Man(a1-3)]Man(b1-4)GlcNAc(b1-4)GlcNAc
Summary of the method: as §1

[19] = target: Fuc(a1-2)Gal(b1-3)[Fuc(a1-4)]GlcNAc(b1-2)Man(a1-3)[Fuc(a1-2)Gal(b1-3)[Fuc(a1-4)]GlcNAc(b1-2)Man(a1-6)]Man(b1-4)GlcNAc(b1-4)[Fuc(a1-6)]GlcNAc(b1-4)[Fuc(a1-6)]GlcNAc
Summary of the method: as §1

[20] = target: Fuc(a1-2)Gal(b1-3)[Fuc(a1-4)]GlcNAc(b1-3)[Fuc(a1-3)[Gal(b1-4)]GlcNAc(b1-6)]Gal(b1-4)Glc
Summary of the method: as §1

[21] = target: Fuc(a1-2)Gal(b1-3)[Fuc(a1-4)]GlcNAc(b1-3)[Gal(b1-4)GlcNAc(b1-6)]Gal(b1-4)Glc
Summary of the method: as §1

[22] = target: Fuc(a1-2)Gal(b1-4)Glc
Summary of the method: as §1

[23] = target: Fuc(a1-2)Gal(b1-4)Glc6S
Summary of the method: as §1

[24] = target: Fuc(a1-2)Gal(b1-4)GlcNAc
Summary of the method: as §1

[25] = target: Fuc(a1-2)Gal(b1-4)GlcNAc(b1-2)Man
Summary of the method: as §1

[26] = target: Fuc(a1-2)Gal(b1-4)GlcNAc(b1-2)Man(a1-3)[Fuc(a1-2)Gal(b1-4)GlcNAc(b1-2)Man(a1-6)]Man(b1-4)GlcNAc(b1-4)GlcNAc
Summary of the method: as §1

[27] = target: Fuc(a1-2)Gal(b1-4)GlcNAc(b1-2)Man(a1-3)[Fuc(a1-2)Gal(b1-4)GlcNAc(b1-2)Man(a1-6)]Man(b1-4)GlcNAc(b1-4)[Fuc(a1-6)]GlcNAc
Summary of the method: as §1

[28] = target: Fuc(a1-2)Gal(b1-4)GlcNAc(b1-2)[Fuc(a1-2)Gal(b1-4)GlcNAc(b1-4)]Man(a1-3)[Fuc(a1-2)Gal(b1-4)GlcNAc(b1-2)Man(a1-6)]Man(b1-4)GlcNAc(b1-4)GlcNAc
Summary of the method: as §1

[29] = target: Fuc(a1-2)Gal(b1-4)GlcNAc(b1-3)Gal(b1-4)GlcNAc
Summary of the method: as §1

[30] = target: Fuc(a1-2)Gal(b1-4)GlcNAc(b1-3)Gal(b1-4)GlcNAc(b1-2)Man(a1-3)[Fuc(a1-2)Gal(b1-4)GlcNAc(b1-3)Gal(b1-4)GlcNAc(b1-2)Man(a1-6)]Man(b1-4)GlcNAc(b1-4)GlcNAc
Summary of the method: as §1

[31] = target: Fuc(a1-2)Gal(b1-4)GlcNAc(b1-3)Gal(b1-4)GlcNAc(b1-3)Gal(b1-4)GlcNAc
Summary of the method: as §1

[32] = target: Fuc(a1-2)Gal(b1-4)GlcNAc(b1-3)GalNAc
Summary of the method: as §1

[33] = target: Fuc(a1-2)Gal(b1-4)GlcNAc(b1-3)[Fuc(a1-2)Gal(b1-4)GlcNAc(b1-6)]GalNAc
Summary of the method: as §1

[34] = target: Fuc(a1-2)Gal(b1-4)GlcNAc(b1-3)[Fuc(a1-3)[Gal(b1-4)]GlcNAc(b1-6)]Gal(b1-4)Glc
Summary of the method: as §1

[35] = target: Fuc(a1-2)Gal(b1-4)GlcNAc(b1-6)GalNAc
Summary of the method: as §1

[36] = target: Fuc(a1-2)Gal(b1-4)GlcNAc6S
Summary of the method: as §1

[37] = target: Fuc(a1-2)Gal(b1-4)[Fuc(a1-3)]GlcNAc
Summary of the method: as §1

B1: EUL D1A first (Oryza sativa) (protein)
chain: MFGFGHHHNQAPAAPSDPNQIFKIFCRANENYCLTVRDSAVVLAPVNPKDEHQHWFKDMRFSTKVKDGEGMPAFALVNKATGLAVKHSLGQSHPVKLVPFNPEYEDASVLWTESKDVGKGFRCIRMVNNTRLNLDAFHGDKDHGGVRDGTTVVLWEWCKGDNQSWKILPWGPEAHSSSPGAATILEQKLISEEDLNSAVDHHHHHH
[1]
  glycan array binding signal (z-score): -0.803
[2]
  glycan array binding signal (z-score): -0.658
[3]
  glycan array binding signal (z-score): -1.18
[4]
  glycan array binding signal (z-score): -0.14
[5]
  glycan array binding signal (z-score): -0.944
[6]
  glycan array binding signal (z-score): 2.66
[7]
  glycan array binding signal (z-score): 0.02
[8]
  glycan array binding signal (z-score): -0.301
[9]
  glycan array binding signal (z-score): 0.636
[10]
  glycan array binding signal (z-score): -0.245
[11]
  glycan array binding signal (z-score): 0.15
[12]
  glycan array binding signal (z-score): -0.893
[13]
  glycan array binding signal (z-score): -1.12
[14]
  glycan array binding signal (z-score): -0.085
[15]
  glycan array binding signal (z-score): 0.072
[16]
  glycan array binding signal (z-score): 3.74
[17]
  glycan array binding signal (z-score): -0.887
[18]
  glycan array binding signal (z-score): 0.243
[19]
  glycan array binding signal (z-score): 1.44
[20]
  glycan array binding signal (z-score): -0.062
[21]
  glycan array binding signal (z-score): 1.7
[22]
  glycan array binding signal (z-score): 0.54
[23]
  glycan array binding signal (z-score): 1.57
[24]
  glycan array binding signal (z-score): -0.369
[25]
  glycan array binding signal (z-score): -1.03
[26]
  glycan array binding signal (z-score): 1.43
[27]
  glycan array binding signal (z-score): 1.89
[28]
  glycan array binding signal (z-score): -0.106
[29]
  glycan array binding signal (z-score): 1.11
[30]
  glycan array binding signal (z-score): 0.227
[31]
  glycan array binding signal (z-score): -0.125
[32]
  glycan array binding signal (z-score): -0.43
[33]
  glycan array binding signal (z-score): 0.609
[34]
  glycan array binding signal (z-score): 2.74
[35]
  glycan array binding signal (z-score): 0.018
[36]
  glycan array binding signal (z-score): -0.32
[37]
  glycan array binding signal (z-score): -0.572
